For at least one entry, the source does not settle the construct or the ends of the probe. Weaker means in comparison with the reference protein, sequence or condition of that experiment. At least one verdict was read from the data and is not stated in words by the source.

Chains of the proteins cited; added tags and fusions are not shown. Residues count along the entry.
UniProt Q08874, 287-403 K313Q: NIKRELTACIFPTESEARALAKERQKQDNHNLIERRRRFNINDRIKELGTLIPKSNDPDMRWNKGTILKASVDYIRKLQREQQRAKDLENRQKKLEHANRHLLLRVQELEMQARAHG
UniProt Q08874, 287-403 K313R: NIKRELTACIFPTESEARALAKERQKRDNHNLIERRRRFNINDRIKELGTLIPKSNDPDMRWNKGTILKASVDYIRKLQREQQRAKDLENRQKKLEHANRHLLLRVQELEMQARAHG

One data set has as its target MITF DBD K206Q K313Q (UniProt Q08874). Put plainly: fluorescence anisotropy. As to conditions: 10 mM Tris/HCl pH 7.5, 300 mM NaCl, 0.01% Triton X-100, 0.1 mg/mL BSA, 25 C, 5 min, 1.33 nM dsDNA, quadratic fit, n=3, recombinant protein, residues 287-403, protein details: His (Ni-NTA purified, pETM-11), label: 3' fluorescein on strand 1. In general terms: In fluorescence polarisation assays a small probe gives low polarisation when free and higher when bound to something large.

The target in the next data set is MITF DBD K206R K313R (UniProt Q08874). The data set can be described thus: fluorescence anisotropy. To be noted: similar to WT; 10 mM Tris/HCl pH 7.5, 300 mM NaCl, 0.01% Triton X-100, 0.1 mg/mL BSA, 25 C, 5 min, 1.33 nM dsDNA; quadratic fit, n=3; recombinant protein; residues 287-403; protein details: His (Ni-NTA purified, pETM-11); label: 3' fluorescein on strand 1.

“GAGATCACGTGATGAC (double strand) [CLEAR-box]”: the binding result is given as “binds more weakly” with MITF DBD K206Q K313Q (largely as Ac-K206, moderate reduction) and “binds” with MITF DBD K206R K313R.

For “GAGATCATGTGATGAC (double strand) [TYR enhancer]”, the figures for the binding result with MITF DBD K206Q K313Q (largely as Ac-K206) and in the data set with MITF DBD K206R K313R were “binds more weakly” and “binds”, respectively.

In the case of “GAGATCATGTGTTGAC (double strand) [M-box]”, the binding result is given as “binds more weakly” with MITF DBD K206Q K313Q (largely as Ac-K206, severe reduction) and “binds more weakly” with MITF DBD K206R K313R.

Source of the values: paper PMC10539308, “Acetylation reprograms MITF target selectivity and residence time”.
